# The whole screen tested about 370,000 compounds, of which about 100 (0.027%) were called active. The inconclusive results got no clear call from the source; some entries with a clear call stand among them for comparison. Calls come from the whole dose curve; as a rule, active = well fitted inhibition curve with a large enough effect in the polarisation, with a control signal flat; inconclusive = small, poorly fitted or top-dose-only effect, or effect the other way, or a change in a side signal; inactive = no such curve, though single readings can be large or run the other way; the % refers to the polarisation. Potencies of inconclusive entries are doubtful fits and often do not repeat. “Side channel” marks fits to a control or component signal instead of the main read-out.
# Sequences of proteins named here, by UniProt entry; tags and fusion partners are left off.
# UniProt P11308, whole entry, looked up: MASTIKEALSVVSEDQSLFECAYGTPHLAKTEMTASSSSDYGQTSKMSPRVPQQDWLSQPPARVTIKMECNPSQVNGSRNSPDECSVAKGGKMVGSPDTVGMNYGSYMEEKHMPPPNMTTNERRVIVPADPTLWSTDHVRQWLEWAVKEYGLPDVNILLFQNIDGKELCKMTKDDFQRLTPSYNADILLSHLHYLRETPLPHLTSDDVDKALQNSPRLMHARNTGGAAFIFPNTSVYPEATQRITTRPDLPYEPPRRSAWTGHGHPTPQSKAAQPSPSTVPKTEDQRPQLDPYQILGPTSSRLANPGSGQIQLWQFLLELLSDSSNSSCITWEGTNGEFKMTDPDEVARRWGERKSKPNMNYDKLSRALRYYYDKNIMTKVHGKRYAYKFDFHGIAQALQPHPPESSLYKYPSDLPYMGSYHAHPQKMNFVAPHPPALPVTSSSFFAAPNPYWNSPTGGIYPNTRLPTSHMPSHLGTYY
# Target: Transcriptional regulator ERG (Homo sapiens) (UniProt P11308)
# Assay: qHTS for Small Molecule Inhibitors of the ERG Ets/DNA interaction
# Conditions: fluorescence polarization, His-ERG Ets domain / labelled DNA; series mostly up to 76.9 µM
# Text: The Ets family of proteins is a family of ~30 conserved transcription factors defined by the presence of an ~85 amino acid domain referred to as the Ets domain, which mediates sequence-specific DNA binding to a core DNA element GGAA/T.The Ets family member ERG has been linked to several neoplasms. […] More extensive studies of the effects of over-expression of ERG in prostate cells have recently been carried out and have shown that over-expression of ERG results in increased invasion. […] We will carry out a high throughout screen to identify inhibitors of the interaction between ERG and DNA using a fluorescence polarization (FP) assay with a His-tagged ERG Ets domain and fluorescently-labeled DNA probes to develop small molecule inhibitors of this interaction as probes to test this hypothesis and lay the groundwork for the development of targeted therapies against ERG. NIH Molecular Libraries Probe Production Network [MLPCN] NIH Chemical Genomics Center [NCGC] Grant: NS066464 PI Name: John Bushweller, University of Virgina
# 1.5 ul of protein solution (1 uM ERG domain in 300mM KCl, 50mM Tris-HCl, 1mM EDTA, 1mM DTT, pH 7.5); 20 nl Control plate and compound library plate; 1.5 ul mixture of 5 nM Fluorescein-DNA and 100nM Texas-615-DNA solution in same buffer as above solution; measure fluorescence polarization sequentially for fluorescein (Excitation = 480 nm, Emission = 535s, 535p nm) and Texas red (Excitation = 555 nm, Emission = 632s, 632p nm).
# Potency is the fitted concentration of half-maximal effect.
row,SMILES,Potency
1,Fc1ccc(-c2csc(N3CCC(c4ccccc4)C3)n2)cc1 (configuration not stated),inactive
2,S=C(NCCCN1CCOCC1)NC1CCCC1,"inconclusive: 35.5 µM [fluorescent, side channel, single point]"
3,Clc1ccc(C2=NNC(=NCc3ccccc3)SC2)cc1,"inconclusive: 56.2 µM [quencher, side channel, single point]"
4,N#C/C(=N\Nc1ccc(Cl)cc1)C(=O)c1ccccc1,inactive
5,CCN1CCN(CCCN(Cc2cccs2)C(=S)Nc2ccccc2C)CC1,"inconclusive: 22.4 µM [inhibitor, partial curve, poor fit]"
6,O=C1N/C(=C/c2cccs2)C(=O)N1Cc1ccc(F)cc1,"inconclusive: 50.1 µM [inhibitor, partial curve, poor fit]"
7,COc1ccc(S(=O)(=O)N2CCCCCC2)cc1C(=O)N(C)CCOc1ccc(Cl)cc1,"inconclusive: 25.1 µM [inhibitor, partial curve]"
8,O=C(CN1CCN(S(=O)(=O)c2ccccc2F)CC1)Nc1ccccc1C(=O)c1ccccc1,inactive
9,Cc1cc2ccccc2n1CCNC(=O)C1CCCCC1,"inconclusive: 50.1 µM [inhibitor, single point]"
10,Cc1cc2ccccc2n1CCNC(=O)c1cccs1,active: 31.6 µM
11,C[C@H](CO)N1C[C@H](C)[C@@H](CN(C)CC2CC2)Oc2c(NC(=O)C3CC3)cccc2C1=O,"inconclusive: 28.2 µM [inhibitor, partial curve, poor fit]"
12,COC(=O)[C@H](Cc1ccccc1)NC(=O)Nc1ccc(OC)cc1,"inconclusive: 7.08 µM [inhibitor, single point]"
13,COc1ccc(Cl)cc1NC(=O)COC(C)=O,"inconclusive: 2.82 µM [inhibitor, partial curve, poor fit]"
14,COc1ccc(C(=O)NCc2nnc(SCC(=O)Nc3ccc(F)cc3)n2-c2ccccc2)cc1,"inconclusive: 0.891 µM [quencher, side channel, full curve, poor fit]"
15,Oc1ccc(NCc2ccccc2OCc2ccccc2Cl)cc1,"inconclusive: 79.4 µM [inhibitor, single point]"
16,COc1ccccc1NC(=O)c1ccc(NC(=O)c2cc3c(s2)CCC3)cc1,inactive
17,CCCN(CCC)C(=O)c1oc2ccccc2c1NC(=O)Cc1cccc(OC)c1,inactive
18,O=c1c2c3c(sc2n(CCN2CCCC2)c(=O)n1Cc1ccco1)CCCCC3,inactive
19,O=C(NNc1c2ccccc2nc2ccccc12)c1ccc(O)cc1O,"inconclusive: 28.2 µM [quencher, side channel, partial curve, poor fit]"
20,Cc1c(Br)cc(C(=O)OC2CCN(C)CC2)c(C)c1C,inactive
21,O=C(c1cccs1)c1cn(CCOc2ccc(F)cc2)c2ccccc12,inactive
22,c1ccc(OCc2nc(-c3ccccc3)no2)cc1,inactive
23,O=C(CSc1n[nH]c(=O)n1-c1cccnc1)Nc1ccccc1Cl,inactive

# 16 structures from above, ordered by length of the SMILES, smallest number first:
row,SMILES,Potency
2,S=C(NCCCN1CCOCC1)NC1CCCC1,"inconclusive: 35.5 µM [fluorescent, side channel, single point]"
13,COc1ccc(Cl)cc1NC(=O)COC(C)=O,"inconclusive: 2.82 µM [inhibitor, partial curve, poor fit]"
10,Cc1cc2ccccc2n1CCNC(=O)c1cccs1,active: 31.6 µM
9,Cc1cc2ccccc2n1CCNC(=O)C1CCCCC1,"inconclusive: 50.1 µM [inhibitor, single point]"
15,Oc1ccc(NCc2ccccc2OCc2ccccc2Cl)cc1,"inconclusive: 79.4 µM [inhibitor, single point]"
3,Clc1ccc(C2=NNC(=NCc3ccccc3)SC2)cc1,"inconclusive: 56.2 µM [quencher, side channel, single point]"
20,Cc1c(Br)cc(C(=O)OC2CCN(C)CC2)c(C)c1C,inactive
6,O=C1N/C(=C/c2cccs2)C(=O)N1Cc1ccc(F)cc1,"inconclusive: 50.1 µM [inhibitor, partial curve, poor fit]"
19,O=C(NNc1c2ccccc2nc2ccccc12)c1ccc(O)cc1O,"inconclusive: 28.2 µM [quencher, side channel, partial curve, poor fit]"
21,O=C(c1cccs1)c1cn(CCOc2ccc(F)cc2)c2ccccc12,inactive
12,COC(=O)[C@H](Cc1ccccc1)NC(=O)Nc1ccc(OC)cc1,"inconclusive: 7.08 µM [inhibitor, single point]"
17,CCCN(CCC)C(=O)c1oc2ccccc2c1NC(=O)Cc1cccc(OC)c1,inactive
18,O=c1c2c3c(sc2n(CCN2CCCC2)c(=O)n1Cc1ccco1)CCCCC3,inactive
7,COc1ccc(S(=O)(=O)N2CCCCCC2)cc1C(=O)N(C)CCOc1ccc(Cl)cc1,"inconclusive: 25.1 µM [inhibitor, partial curve]"
14,COc1ccc(C(=O)NCc2nnc(SCC(=O)Nc3ccc(F)cc3)n2-c2ccccc2)cc1,"inconclusive: 0.891 µM [quencher, side channel, full curve, poor fit]"
11,C[C@H](CO)N1C[C@H](C)[C@@H](CN(C)CC2CC2)Oc2c(NC(=O)C3CC3)cccc2C1=O,"inconclusive: 28.2 µM [inhibitor, partial curve, poor fit]"

# The list continues.

row,SMILES,Potency
1,O=c1ccc2cc(S(=O)(=O)Nc3ccccc3F)ccc2o1,"inconclusive: 28.2 µM [inhibitor, single point]"
2,CC(=O)NCC(=O)N1CCCC(C(=O)c2ccc3c4c(cccc24)CC3)C1 (configuration not stated),"inconclusive: 7.94 µM [inhibitor, single point]"
3,O=S(=O)(c1ccccc1)c1cnc(-c2cccnc2)nc1-c1ccccc1,"inconclusive: 100 µM [inhibitor, single point]"
4,CN(C(=O)CN1C(=O)c2cccc(N)c2C1=O)C1CCCCC1,inactive
5,CC(=O)c1ccc(NC(=O)Nc2ccc(NS(=O)(=O)c3ccc(C)cc3)cc2)cc1,"inconclusive: 50.1 µM [quencher, side channel, single point]"
6,CC1COc2ccccc2N1S(=O)(=O)c1ccc(Cl)cc1 (configuration not stated),"inconclusive: 50.1 µM [inhibitor, single point]"
7,Cc1cc(Cl)ccc1OCC(=O)Nc1c(Cl)ccc2nsnc12,"inconclusive: 5.62 µM [quencher, side channel, full curve, poor fit]"
8,COc1ccc2c(c1)CCC/C2=N\Nc1nc(C(=O)NN)cs1,inactive
9,O=C(NC1(O)C(=O)c2ccccc2C1=O)c1c(Cl)cccc1Cl,"inconclusive: 11.2 µM [quencher, single point]"
10,COC(=O)CN(c1ccc(F)cc1)S(=O)(=O)c1ccccc1,"inconclusive: 28.2 µM [quencher, side channel, partial curve, poor fit]"
11,Cc1ccc2c(c1)C(Cc1ccccc1F)C(=O)N2 (configuration not stated),inactive
12,CC(C)C(=O)Nc1ccc(C(=O)N/N=C/c2cc(Br)cc(Br)c2O)cc1,"inconclusive: 28.2 µM [inhibitor, partial curve, poor fit]"
13,COc1ccc(S(=O)(=O)c2nnn(-c3ccccc3F)c2C)cc1,"inconclusive: 50.1 µM [quencher, side channel, single point]"
14,COc1cc(CNCc2ccncc2)cc(OC)c1OC,"inconclusive: 50.1 µM [inhibitor, single point]"
15,COCCCn1c(-c2ccccc2Cl)n[nH]c1=S,inactive
16,O=C(NCC(=O)N(c1cccc(F)c1)C(C(=O)NC1CCCC1)c1cccnc1)c1cccs1 (configuration not stated),"inconclusive: 7.94 µM [inhibitor, single point]"
17,COc1cc(C(=O)Cc2nc3ccccc3n2C)cc(OC)c1OC,"inconclusive: 7.08 µM [inhibitor, single point]"
18,CCOC(=O)c1c(NC(=O)C2=C(C)NC(=S)NC2c2ccccc2C(F)(F)F)sc(C)c1C (configuration not stated),active: 35.5 µM
19,COCCCNC(=O)N1[C@H](c2cccs2)[C@@H](C)C(=O)[C@@H](C)[C@@H]1c1cccs1,inactive
20,O=C1/C(=C/c2cccs2)Sc2ccccc21,"inconclusive: 11.2 µM [inhibitor, single point]"
21,O=C(CCCN1C(=O)/C(=C/c2cccs2)SC1=S)NNC(=O)c1ccncc1,"inconclusive: 35.5 µM [fluorescent, side channel, single point]"
22,CC(=O)c1c(C)[nH]c(C(=O)OCc2cc(=O)n3cc(Br)ccc3n2)c1C,inactive
23,CN(C)c1ccc(-c2nc(-c3ccco3)no2)cc1[N+](=O)[O-],"inconclusive: 56.2 µM [quencher, side channel, partial curve, poor fit]"

# Reprinted at random: 2 entries already listed, in no set order.
row,SMILES,Potency
13,COc1ccc(Cl)cc1NC(=O)COC(C)=O,"inconclusive: 2.82 µM [inhibitor, partial curve, poor fit]"
18,CCOC(=O)c1c(NC(=O)C2=C(C)NC(=S)NC2c2ccccc2C(F)(F)F)sc(C)c1C (configuration not stated),active: 35.5 µM

# Following part

row,SMILES,Potency
1,CCc1cccc(CC)c1NC(=S)Nc1ccc2cn[nH]c2c1,"inconclusive: 50.1 µM [inhibitor, single point]"
2,CC1CCCN(C/C(O)=C(\C#N)c2nc3ccccc3[nH]2)C1 (configuration not stated),"inconclusive: 28.2 µM [quencher, side channel, partial curve, poor fit]"
3,COc1ccc(Cl)cc1/C=C/c1ccc2cccc(O)c2n1,"inconclusive: 11.2 µM [inhibitor, single point]"
4,CC1Cc2cc(/C=C3/SC(=S)NC3=O)ccc2O1 (configuration not stated),inactive
5,Cc1ccc(S(=O)(=O)N(Cc2nc(-c3cccc(C)c3)no2)C2CCCCC2)cc1,inactive
6,CCOC(=O)c1c(C(=O)OCC)c(C)n(N2C(=O)CSC2=S)c1C,"inconclusive: 39.8 µM [fluorescent, side channel, partial curve]"
7,Cn1c(SCC(=O)N2CCN(C(=O)c3ccco3)CC2)nnc1-c1ccc(NS(C)(=O)=O)cc1,"inconclusive: 3.55 µM [inhibitor, partial curve, poor fit]"
8,O=[N+]([O-])c1cccc(-c2csc(N/N=C/c3cccc(O)c3)n2)c1,"inconclusive: 35.5 µM [quencher, side channel, single point]"
9,CCOc1ccc(NC(=O)Nc2cccn(Cc3ccccc3)c2=O)cc1,"inconclusive: 11.2 µM [inhibitor, single point]"
10,COC(=O)c1ccc(NC(=O)c2cccc(C)c2[N+](=O)[O-])cc1,"inconclusive: 11.2 µM [inhibitor, single point]"
11,CCC(=O)Nc1c(C)ccc2nsnc12,"inconclusive: 100 µM [inhibitor, single point]"
12,Cc1cc2ccccc2n1CCNC(=O)c1ccc(Br)o1,active: 31.6 µM
13,N#Cc1ccc(OCC(=O)n2cc(C(=O)c3cc(Cl)cc(Cl)c3O)cn2)cc1,"inconclusive: 0.891 µM [inhibitor, partial curve, poor fit]"
14,Clc1ccc(-c2nnc(-c3ccccc3)c(-c3ccccc3)n2)cc1,"inconclusive: 11.2 µM [inhibitor, partial curve, poor fit]"
15,C#CCn1ccc(O)c(Cc2c(F)cccc2Cl)c1=O,"inconclusive: 50.1 µM [inhibitor, single point]"
16,Cc1ccc2oc3nc(C)c(C(=O)O)cc3c(=O)c2c1,inactive
17,O=C(NCCc1nc2ccccc2[nH]1)/C(=C/c1ccco1)NC(=O)c1ccc(Br)o1,"inconclusive: 28.2 µM [quencher, side channel, partial curve, poor fit]"
18,NC(CO)C(=O)NNCc1ccc(O)c(O)c1O (configuration not stated),"inconclusive: 50.1 µM [inhibitor, single point]"
19,Cc1nc2nc[nH]n2c(=O)c1NS(=O)(=O)c1ccc(F)cc1,"inconclusive: 31.6 µM [inhibitor, single point]"
20,Cc1cccc(NC(=O)c2ccccc2NC(=O)c2ccco2)c1,"inconclusive: 11.2 µM [inhibitor, single point]"
21,CCOC(=O)C1CCCN(C(=O)c2nn(-c3ccc(C)cc3)c(=O)n(C)c2=O)C1 (configuration not stated),"inconclusive: 28.2 µM [inhibitor, partial curve, poor fit]"

# Source: PubChem BioAssay AID624246 (National Center for Advancing Translational Sciences (NCATS), 2012)
